This is an account of results in PubChem BioAssay AID1487 (National Center for Advancing Translational Sciences (NCATS), 2009).

This test can be described thus: qHTS Assay for Modulators of Lamin A Splicing. Particulars: HeLa LMNA splicing GFP/RFP minigene ratio, 48 h. Summed up:
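Read-out is the ratio of GFP to DsRed2 object intensity, acquired by 488 nm laser-scanning cytometry on HeLa lamin A-EGFP minigene reporter cells. Compound incubation 48 hrs at 37 °C in Opti-MEM with 2% FBS; DMSO 0.5% final.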

The mark [1] stands for this setting: measured here: RFP viability control channel.
The mark [2] stands for this setting: measured here: GFP splicing reporter channel.

Some of the results follow. The main result of the screen is listed elsewhere. These columns were measured beside it and carry no call. Most of these compounds were active or inconclusive in the main read-out, so they are no random draw. Words in brackets tell the shape of the fitted curve; partial curves, single points and poor fits give uncertain potencies.

For the compound `COc1cccc(NC(=S)NNC(=O)CCn2cc([N+](=O)[O-])cn2)c1`, the AC50 under setting [1] was 0.00316 µM [falling, full curve, poor fit].

Turning to `Cc1cccc(/C=N\NC(=O)c2ccc(Cl)cc2)c1O`, under setting [1], the half-maximal activity concentration (AC50) is 2.24 µM [falling, partial curve, poor fit].

Consider `Fc1cccc(NC(=S)NCCc2ccccc2)c1`, for which the half-maximal activity concentration (AC50) under setting [1] is 35.5 µM [rising, single point].

Regarding `Cc1cccc(C)c1NC(=O)CCCn1c(=O)c2cccn2c2ccccc21`, under setting [2], the AC50 was 12.6 µM [falling, partial curve, poor fit].

For the compound `O=Cc1sc(Nc2ccccc2)nc1Cl`, the AC50 under setting [2] was 1.78 µM [falling, full curve].

Consider `NC(=O)C1CCN(c2ncnc3c(-c4ccccc4)nsc23)CC1`, for which the AC50 is, setting by setting: under setting [2], 15.8 µM [falling, single point]; under setting [1], 22.4 µM [falling, single point].

Take `O=C(COc1ccc(Br)cc1)N1CCN(S(=O)(=O)/C=C/c2ccccc2)CC1`: the AC50 under setting [2] was 31.6 µM [rising, single point] and the AC50 under setting [1] is 35.5 µM [rising, single point].

For `Cc1ccc(Cl)cc1-n1ncc2c(Nc3ccc4c(c3)OCCO4)ncnc21`, under setting [1], the AC50 was 3.98 µM [falling, single point].

As to `Cc1ccnc(Nc2nc3ccccc3o2)n1`, under setting [1], the AC50 was 31.6 µM [rising, partial curve].

Regarding `COc1cccc(CN2CCN(Cc3ccc(C#CC(C)(C)O)s3)CC2CCO)c1` (centres undefined), the AC50 was 25.1 µM [falling, single point] under setting [2] and 12.6 µM [falling, partial curve] under setting [1].

Consider `Cc1nn(-c2nc3ccccc3s2)c(C)c1Oc1ccccc1O`, for which the AC50 is, setting by setting: under setting [2], 35.5 µM [falling, single point]; under setting [1], 1.58 µM [rising, partial curve, poor fit].

On to `Cc1cc(C)cc(CC(Cc2nc3ccccc3[nH]2)c2nc3ccccc3[nH]2)c1` (centres undefined), for which the AC50 under setting [1] was 22.4 µM [rising, single point].

Regarding `O=C(Nc1ncc(Cc2ccccc2Cl)s1)c1ccc(-c2cccc([N+](=O)[O-])c2)o1`, the AC50 under setting [1] was 3.98 µM [rising, full curve, poor fit].

Turning to `NC(N)=NCCC[C@H](NC(=O)OCc1ccccc1)C(=O)O`, the AC50 under setting [1] was 5.01 µM [falling, partial curve].

In the case of `CC(C)c1ccc(NC(=O)C(c2ccccc2)N2CCC3(CC2)OCCO3)cc1` (centres undefined), the AC50 under setting [2] is 11.2 µM [rising, single point] and the half-maximal activity concentration (AC50) under setting [1] was 11.2 µM [rising, single point].

For the compound `CCN(CC)S(=O)(=O)c1ccc(C(=O)NC2CC(=O)N(c3ccc(OC)c(OC)c3)C2)cc1` (centres undefined), the AC50 is 3.98 µM [rising, full curve, poor fit] under setting [2] and 4.47 µM [rising, single point] under setting [1].

Turning to `CC(/C=C/c1ccccc1)=N\Nc1nc(-c2ccccc2)cs1`, the AC50 was 7.08 µM [rising, partial curve, poor fit] under setting [2] and 8.91 µM [rising, partial curve, poor fit] under setting [1].

On to `Cc1ccc(CNS(=O)(=O)c2ccc3[nH]c4c(c3c2)CCCCC4)cc1`, for which the AC50 reads like this: under setting [2], 35.5 µM [falling, single point]; under setting [1], 35.5 µM [falling, partial curve].

For the compound `Cc1ccc2cc(C)c(SCC(=O)NCc3ccco3)nc2c1`, the half-maximal activity concentration (AC50) under setting [2] was 0.00355 µM [falling, full curve, poor fit].

For `Cc1ccccc1OCC(=O)Nc1ccccc1N1CCCCC1`, the AC50 is 14.1 µM [rising, single point] under setting [2] and 20 µM [rising, single point] under setting [1].

As for `Cc1ccc(-c2nc(NC(=O)c3nn(C)cc3[N+](=O)[O-])sc2C)cc1`, under setting [1], the concentration at half-maximal activity (AC50) was 25.1 µM [falling, single point].

Regarding `Cc1ccc(C)c(Nc2c([N+](=O)[O-])cc(C(=O)N3CC(=O)Nc4ccccc43)cc2[N+](=O)[O-])c1`, the AC50 under setting [2] is 35.5 µM [falling, single point].

For the compound `COc1ccc(-c2nc3ccccc3c(=O)n2CCOc2ccccc2C)cc1`, under setting [1], the AC50 is 1.78 µM [rising, full curve, poor fit].

As to `CCn1c(C)nc2cc(S(=O)(=O)C(F)(F)C(F)C(F)(F)F)ccc21` (centres undefined), the AC50 is 1.12 µM [rising, full curve] under setting [2] and 15.8 µM [rising, partial curve] under setting [1].

In the case of `Cc1cccc(NC(=O)C2CCCN(S(=O)(=O)c3ccc4c(c3)CCCC(=O)N4)C2)c1` (centres undefined), under setting [1], the AC50 is 0.01 µM [falling, full curve, poor fit].

For `COc1ccc(N=C2SC(CC(=O)Nc3cccc(Cl)c3)C(=O)N2Cc2ccco2)cc1` (centres undefined), the AC50 under setting [2] is 35.5 µM [falling, single point] and the AC50 under setting [1] was 0.01 µM [falling, full curve, poor fit].

With `O=C(O)C1CC(O)CN1c1nc(Cl)ccc1[N+](=O)[O-]` (centres undefined), under setting [2], the half-maximal activity concentration (AC50) is 22.4 µM [rising, partial curve, poor fit].

Consider `Cc1ccc(C)n1-n1c(C)nc2sc(-c3ccccc3)cc2c1=O`, for which the half-maximal activity concentration (AC50) reads like this: under setting [2], 25.1 µM [rising, single point]; under setting [1], 25.1 µM [rising, single point].

Consider `Cc1nn(C)c(C)c1/C=N/N=C1\CCC2C3CCc4cc(O)ccc4C3CCC12C` (centres undefined), for which the AC50 under setting [1] is 15.8 µM [rising, single point].

For `Brc1ccc(-c2cn3c(n2)CCc2ccc4cccnc4c2-3)cc1`, the concentration at half-maximal activity (AC50) under setting [2] was 35.5 µM [falling, single point] and the AC50 under setting [1] is 35.5 µM [falling, single point].

Take `O=C(Cn1nc(CNc2ccc(Cl)cc2)[n+]2c1CCCCC2)c1ccccc1`: the AC50 under setting [2] is 35.5 µM [rising, single point] and the AC50 under setting [1] was 35.5 µM [rising, single point].

On to `COc1ccc(C(=O)c2sc3nc(-c4ccccc4)ccc3c2N)cc1OC`, for which the half-maximal activity concentration (AC50) under setting [1] was 22.4 µM [falling, partial curve, poor fit].

As for `O=c1[nH]n2c(=O)c3c([nH]c2c1N=Nc1cccc(C(F)(F)F)c1)CCCC3`, the AC50 under setting [1] was 22.4 µM [rising, partial curve, poor fit].

`COc1ccc(/C=C/C(=O)NCCCc2ccccc2)cc1`: the half-maximal activity concentration (AC50) is, setting by setting: under setting [2], 31.6 µM [rising, single point]; under setting [1], 35.5 µM [rising, single point].
